The source of these data is paper PMC4267639, “The Mtr4 ratchet helix and arch domain both function to promote RNA unwinding”.

Data set [1] deals with Mtr4 R1030A-archless (Saccharomyces cerevisiae) (UniProt P47047). The data set can be described thus: EMSA. To be noted: no appreciable binding up to 20 uM protein; recombinant protein.
The target in data set [2] is T1, Mtr4 archless (Saccharomyces cerevisiae) (UniProt P47047).
T1 sequence: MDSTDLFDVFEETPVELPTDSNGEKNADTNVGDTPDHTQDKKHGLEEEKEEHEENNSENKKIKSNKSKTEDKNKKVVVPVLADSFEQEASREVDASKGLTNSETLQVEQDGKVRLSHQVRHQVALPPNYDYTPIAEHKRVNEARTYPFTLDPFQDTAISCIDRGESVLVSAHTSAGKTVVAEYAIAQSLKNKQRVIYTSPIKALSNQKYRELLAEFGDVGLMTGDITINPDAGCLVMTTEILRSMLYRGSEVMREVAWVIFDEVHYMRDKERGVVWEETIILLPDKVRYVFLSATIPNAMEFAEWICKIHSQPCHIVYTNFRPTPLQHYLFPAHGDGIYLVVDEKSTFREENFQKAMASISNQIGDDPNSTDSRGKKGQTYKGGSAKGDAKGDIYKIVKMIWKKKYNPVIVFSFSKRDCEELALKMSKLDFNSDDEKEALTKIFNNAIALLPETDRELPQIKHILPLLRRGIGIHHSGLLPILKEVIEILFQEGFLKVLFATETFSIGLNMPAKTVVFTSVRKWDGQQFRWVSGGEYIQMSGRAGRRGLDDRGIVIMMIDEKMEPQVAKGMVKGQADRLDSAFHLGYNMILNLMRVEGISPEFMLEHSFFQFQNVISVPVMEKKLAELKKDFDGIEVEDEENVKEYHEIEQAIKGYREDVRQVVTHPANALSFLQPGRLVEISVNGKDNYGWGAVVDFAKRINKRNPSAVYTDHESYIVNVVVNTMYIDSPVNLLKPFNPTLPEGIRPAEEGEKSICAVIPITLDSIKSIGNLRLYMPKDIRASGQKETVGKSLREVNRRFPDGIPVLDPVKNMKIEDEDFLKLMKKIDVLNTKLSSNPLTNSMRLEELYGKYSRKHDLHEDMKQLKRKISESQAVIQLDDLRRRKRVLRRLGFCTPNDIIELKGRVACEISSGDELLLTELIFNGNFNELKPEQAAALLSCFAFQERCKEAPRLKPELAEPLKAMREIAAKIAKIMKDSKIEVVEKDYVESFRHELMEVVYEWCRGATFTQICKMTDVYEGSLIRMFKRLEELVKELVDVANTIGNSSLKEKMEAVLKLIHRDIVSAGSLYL
Kind of data set: EMSA. Particulars: almost complete binding at 5 uM protein; recombinant protein.

The exact form of at least one protein or probe is not confirmed. For some assays here: A negative result means that nothing was seen under these conditions.

As to “GCGUCUUUACGGUGCUUAAAAA / AGCACCGUAAAGACGC [poly(A) substrate R22A/R16 (EMSA)]”, the binding result in data set [1] is “no binding”; in data set [2], “binds”.
